Laboratory results reported in article PMC7819943, “Rice protein-binding microarrays: a tool to detect cis-acting elements near promoter regions in rice”.
The list shows a part of the results.

target: T1, OsSMF1 (Oryza sativa, UniProt Q6ZLB0 1-436); assay: protein-binding microarray (RPBM); PBS, 2% BSA, 51.3 ng/ul salmon testes DNA, 50 uM zinc acetate, 200 nM TF, 25 C, 1 h; high values mean tight binding; details: protein: recombinant; tags: N-terminal polyhistidine and DsRed monomer fusion (pET32a); chain copies: 2; label: CyDye5-dUTP incorporated in the synthesized complementary strand; 3' TTTTT single-stranded linker to array surface; dsDNA, one strand shown
T1 sequence: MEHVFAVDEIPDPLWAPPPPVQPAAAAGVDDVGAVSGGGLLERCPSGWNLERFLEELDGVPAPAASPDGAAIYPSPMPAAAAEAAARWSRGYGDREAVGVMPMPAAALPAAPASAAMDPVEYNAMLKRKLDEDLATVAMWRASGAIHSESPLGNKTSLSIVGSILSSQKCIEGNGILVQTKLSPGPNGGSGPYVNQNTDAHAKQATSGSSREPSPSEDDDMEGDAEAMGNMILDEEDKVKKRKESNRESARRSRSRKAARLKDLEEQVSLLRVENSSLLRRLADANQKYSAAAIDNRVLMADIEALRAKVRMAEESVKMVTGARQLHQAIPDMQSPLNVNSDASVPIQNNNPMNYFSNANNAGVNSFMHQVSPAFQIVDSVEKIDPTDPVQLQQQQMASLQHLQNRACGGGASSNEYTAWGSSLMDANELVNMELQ
In short: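 For the binding signal, per-feature fluorescence intensity was read in arbitrary units on an Axon 4000B scanner. Before scanning, a 2% BSA-blocked custom Agilent array made double-stranded with Cy5-dUTP was washed after 1 h at 25 °C with 200 nM protein and 50 µM zinc acetate. The proteins were Ni–NTA-purified transcription factors with N-terminal polyhistidine and DsRed fusions, expressed in E. coli BL21-CodonPlus.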

Sequence	binding signal
GAGCCCATCTTACCAGCCCAGCAACACTGGCCACCTGGCGCGGAGTCACCTAGTGCAG	3510 fluorescence intensity (a.u.)
TCTGTACTACTTTAAAAGGCTCTGGTGGTGGTGACGGTAACGGAGTCACCTAGTGCAG	3800 fluorescence intensity (a.u.)
CAACCAGGGCCCCATCGCCTTCTCGCTGACATGAACGTCTCGGAGTCACCTAGTGCAG	3430 fluorescence intensity (a.u.)
GAGAATGATGTATGCACGCAGATGACATGGTATGATGAACCGGAGTCACCTAGTGCAG	4370 fluorescence intensity (a.u.)
TTCAGATCTTTTCCCTGATTGATTTGTGGCGTCACAAGTTCGGAGTCACCTAGTGCAG	7680 fluorescence intensity (a.u.)
CTCTCTTAAATCTTTCTGCAAATGCACCGTTTCCAGTCACCGGAGTCACCTAGTGCAG	4010 fluorescence intensity (a.u.)
CCTCAAGATCGCCGCCGCGACCGCCGCCGGCGCGTTGGCGCGGAGTCACCTAGTGCAG	3660 fluorescence intensity (a.u.)
AAGCTGCTCTCCGCCACGCGGCCGTGCTCGTCGACTCGCGCGGAGTCACCTAGTGCAG	4030 fluorescence intensity (a.u.)
GCCACCGTGGTCGTCGACACGCGGAAAGACCAGAGAGGTGCGGAGTCACCTAGTGCAG	3540 fluorescence intensity (a.u.)
TGTTTCCGTGGATTGATGACGTGGTGGGAGGCGCGGGGATCGGAGTCACCTAGTGCAG	12700 fluorescence intensity (a.u.)
AAGTTGGATCAAACAACTCAAAACCCCAGCCCATAGGTTACGGAGTCACCTAGTGCAG	24100 fluorescence intensity (a.u.)
ATGAAACTTTTGACGTGTTCTATTTCTTCAAAAGGTATTCCGGAGTCACCTAGTGCAG	5350 fluorescence intensity (a.u.)
CCTCCCTCCGGCCCCTTGCCTCCACCCACGTCGTCGATCTCGGAGTCACCTAGTGCAG	4080 fluorescence intensity (a.u.)
CACTCCGGCGTGACGGAGCCCTTCCCCGATGTGATGCCTACGGAGTCACCTAGTGCAG	32600 fluorescence intensity (a.u.)
GTGGTACACTAGCAAGTACACGTTGGGCCAAATCTCTCAACGGAGTCACCTAGTGCAG	4290 fluorescence intensity (a.u.)
GTCGCCAACCGTTTTCTCCTCCTCGCTCTCTCCATGTGATCGGAGTCACCTAGTGCAG	3460 fluorescence intensity (a.u.)
GGTGAGATTCTGGGCTGGACACATCAAATTGACGAGGGCCCGGAGTCACCTAGTGCAG	3220 fluorescence intensity (a.u.)
TCACCTCCACCACCGTTGACGATGACACGCGGTGCGTCGCCGGAGTCACCTAGTGCAG	4250 fluorescence intensity (a.u.)
GAAAAGTTTTAGCGTGTCATATCGGATATATGGACACACACGGAGTCACCTAGTGCAG	3170 fluorescence intensity (a.u.)
ACCTCTCGCCGGCAAATTCCTTGGGGAAGGAAAGGCACTGCGGAGTCACCTAGTGCAG	3250 fluorescence intensity (a.u.)
GCAAGGGGCGCCGGGCGGCGGCCACGTGCAGGGAGACGGACGGAGTCACCTAGTGCAG	4310 fluorescence intensity (a.u.)
ACTATTCTAAACTATAAGGTGACGTCCCATCGATATTTGCCGGAGTCACCTAGTGCAG	4530 fluorescence intensity (a.u.)
AATTAGTCATGTTATGATAGCCGAGAGATGCCGAGGTGGACGGAGTCACCTAGTGCAG	3770 fluorescence intensity (a.u.)
CAGGGGCATTTCCGTAAACTCCCACGTGGCACAGATACGGCGGAGTCACCTAGTGCAG	13200 fluorescence intensity (a.u.)
CTGCCACCACCGTCGCCGCGGCTTACACGTCTTCTTCGCCCGGAGTCACCTAGTGCAG	6600 fluorescence intensity (a.u.)
TCCTGCCACGACTGGACGCTCGCCGCCGCCGCCGACCGCCCGGAGTCACCTAGTGCAG	3400 fluorescence intensity (a.u.)
CGTCTAAATCACGACGTGCAAAAGCTGACGTCACATCTAACGGAGTCACCTAGTGCAG	14300 fluorescence intensity (a.u.)

Three records picked at random from the list so far:
Sequence	binding signal
TGTTTCCGTGGATTGATGACGTGGTGGGAGGCGCGGGGATCGGAGTCACCTAGTGCAG	12700 fluorescence intensity (a.u.)
CCTCAAGATCGCCGCCGCGACCGCCGCCGGCGCGTTGGCGCGGAGTCACCTAGTGCAG	3660 fluorescence intensity (a.u.)
AATTAGTCATGTTATGATAGCCGAGAGATGCCGAGGTGGACGGAGTCACCTAGTGCAG	3770 fluorescence intensity (a.u.)

Further results:

Sequence	binding signal
ACGAACCACGGAGATCTCCACGAACCCTAACGCACCCCGCCGGAGTCACCTAGTGCAG	3430 fluorescence intensity (a.u.)
GTCTCCATCCTTCCCAAACCGCGCCGCCTCTCCCCGTCCCCGGAGTCACCTAGTGCAG	3380 fluorescence intensity (a.u.)
CAGCCACGGCGGCGGTGCGTGGCTGGACGAGGCGAGCGTGCGGAGTCACCTAGTGCAG	3610 fluorescence intensity (a.u.)
AGAGCCGAGGCCCGAATTCCTCCGGTCCTCCTCGTGACCCCGGAGTCACCTAGTGCAG	15400 fluorescence intensity (a.u.)
TTTGTGCAATAATGGGCGCAATAAATTAAAGAAGTTACAACGGAGTCACCTAGTGCAG	3160 fluorescence intensity (a.u.)
TTCATCCTCGGCCACTCCTACGTCAAGGCCAAGAGCGGCTCGGAGTCACCTAGTGCAG	3600 fluorescence intensity (a.u.)
CCCATCATGCATGTATGAGGTGGCGTACGTCCCGTTGCAACGGAGTCACCTAGTGCAG	4810 fluorescence intensity (a.u.)
TATCCAGGCGCACGACACTTGACAACTCTGTACTACGTAGCGGAGTCACCTAGTGCAG	38900 fluorescence intensity (a.u.)
TTTTCTATCACATCGTTTTAATTTCAATCAAACTTCCAATCGGAGTCACCTAGTGCAG	45300 fluorescence intensity (a.u.)
TCCGGGCGTGACACACGATGATTCCACACCCGCCCCACCTCGGAGTCACCTAGTGCAG	6160 fluorescence intensity (a.u.)
CCGACGCCGACCCCTTCTCCCAATCTGCGGATTCCAGCGGCGGAGTCACCTAGTGCAG	19500 fluorescence intensity (a.u.)
GATGGTCGTGGTGCATCCATGACGCTCTATCTTCTCCAGCCGGAGTCACCTAGTGCAG	4520 fluorescence intensity (a.u.)
TGGCTGCTGCATGGTTGTTTGCATGGCCGTTGCAGTGTTGCGGAGTCACCTAGTGCAG	4380 fluorescence intensity (a.u.)
AGTTCAAGAAAACTTTATATTCAAACAAGAAAATTGGGGCCGGAGTCACCTAGTGCAG	40900 fluorescence intensity (a.u.)
ACCCGTCTCTGTTCATCTCCACATCTTGTCTTCTCGCTGTCGGAGTCACCTAGTGCAG	3160 fluorescence intensity (a.u.)
TTCCTATGGAAAGCGTTGATCCCGCTTCACAAGCCAAAGACGGAGTCACCTAGTGCAG	23300 fluorescence intensity (a.u.)
GATATGGTAATTTAGTGTCCATTATGGTGTTTCTTAATTGCGGAGTCACCTAGTGCAG	4310 fluorescence intensity (a.u.)
GTCGCAGCATCCACGCCACGCCACGCCACGCCACGCGTTTCGGAGTCACCTAGTGCAG	9850 fluorescence intensity (a.u.)
ATCTCGCTTCCATTTCTTCGCCATTTGAGCTTTCTTGGAGCGGAGTCACCTAGTGCAG	21800 fluorescence intensity (a.u.)
TCGTTGCCTCTCCTCCTCCTCGTCACCTCACCTGCACCTGCGGAGTCACCTAGTGCAG	4020 fluorescence intensity (a.u.)
GGCGGTGAACCCAGAGCCAGTGACCATTCCACCAGGTGAACGGAGTCACCTAGTGCAG	3680 fluorescence intensity (a.u.)
GACGTGATAAAGAAGTTCAGATTTAGAAATAAATTTGAAGCGGAGTCACCTAGTGCAG	3820 fluorescence intensity (a.u.)
GCGGACGCTGAGCTACGCCACATCGGATAGGAATAGTGCGCGGAGTCACCTAGTGCAG	6290 fluorescence intensity (a.u.)
CTATCAAATATCTGATGTAATCAATTTGTCACTAGACTACCGGAGTCACCTAGTGCAG	3210 fluorescence intensity (a.u.)
ACATTACCAAATTTTAACAATGCCAAAATTTTGGTAAGGTCGGAGTCACCTAGTGCAG	3450 fluorescence intensity (a.u.)
TGTTGTGATACACATCATTTGGAGCCCTGACTATTCCAGGCGGAGTCACCTAGTGCAG	3200 fluorescence intensity (a.u.)
CCTATAGCTAGCTAGCTCGTCACACACACCTCACAGGCTCCGGAGTCACCTAGTGCAG	3820 fluorescence intensity (a.u.)
